PubChem BioAssay AID493246 | Drosophila RNAi Screening Center, 2011
Aim: 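Genes fly cells need to grow and stay alive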 (primary screen). Cells: Drosophila Kc and S2R+ cells. Reagent: long dsRNA against Drosophila genes. Detection: 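Cell number per well after knock-down, printed as raw plate values; calls were based on per-plate z-scores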. Scale: Kc cell number and S2R+ cell number: higher = more cells remaining. Active means: 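Active when the per-plate z-score of cell number is 3 or more in the direction of fewer cells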.
The screen tested about 21,000 reagents; shown is an unselected part of those that have a named target and a result. Of all reagents, 429 (2%) were called active. 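Values are raw and not normalised between plates; calls rest on per-plate z-scores that were not deposited.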 Entries without a mark were called inactive. Reagents against one gene are numbered here. Names joined by + are all predicted targets of the reagent. The record does not give: the amount of reagent, the time to read-out.

no.	predicted target	dsRNA no.	Kc cell number, rep 1	Kc cell number, rep 2	S2R+ cell number, rep 1	S2R+ cell number, rep 2
1	sprt	1	1.35e6	1.42e6	1.05e6	1.14e6
2	porin	1	1.33e6	1.43e6	1.09e6	1.12e6
3	CG4650	1	1.51e6	1.59e6	1.21e6	1.34e6
4	BORCS6	1	1.22e6	1.31e6	1.09e6	1.28e6
5	CG14818	1	1.52e6	1.51e6	1.05e6	1.10e6
6	CG18735	1	1.53e6	1.61e6	1.20e6	3.48e5
7	snRNP-U1-C	1	1.20e6	1.27e6	8.24e5	9.21e5
8	CG30050	1	1.44e6	1.62e6	1.04e6	1.21e6
9	Nelf-A	1	1.64e6	1.68e6	1.25e6	1.34e6
10	CG11200	1	1.30e6	1.32e6	1.17e6	1.19e6
11	Hsp68	1	1.40e6	1.45e6	9.65e5	1.02e6
12	Cht6	1	1.60e6	1.57e6	1.14e6	1.23e6
13	Cht6	2	1.55e6	1.59e6	8.44e5	9.71e5
14	Cht6	3	1.58e6	1.58e6	1.06e6	1.26e6
15	Pde11	1	1.67e6	1.75e6	1.15e6	2.15e5
16	Plod	1	1.29e6	1.55e6	1.17e6	1.12e6
17	Plod	2	1.29e6	1.35e6	1.24e6	1.29e6
18	CG32815	1	1.66e6	1.68e6	1.06e6	1.23e6
19	Wee1	1	1.58e6	1.49e6	1.27e6	1.42e6
20	VhaPPA1-1	1	1.38e6	1.45e6	1.23e6	1.27e6
21	Inx5	1	1.53e6	1.61e6	1.09e6	1.23e6
22	CG14974	1	1.48e6	1.31e6	9.91e5	1.20e6
23	Mco4	1	1.47e6	1.47e6	1.04e6	1.11e6
24	Pof	1	1.44e6	1.61e6	1.15e6	1.25e6
25	CG13605	1	1.52e6	1.56e6	1.15e6	1.20e6
26	Tudor-SN	1	1.52e6	1.55e6	1.21e6	1.29e6
27	CG4287	1	1.63e6	1.75e6	1.17e6	1.30e6
28	Osi6	1	1.46e6	1.50e6	1.27e6	1.40e6
29	CG14182	1	1.37e6	1.31e6	1.35e6	1.40e6
30	CG34181	1	1.52e6	1.63e6	8.46e5	9.88e5
31	UbcE2H	1	5.89e5		9.17e5	

Continued; the last 9 above are carried over.
no.	predicted target	dsRNA no.	Kc cell number, rep 1	Kc cell number, rep 2	S2R+ cell number, rep 1	S2R+ cell number, rep 2
23	Mco4	1	1.47e6	1.47e6	1.04e6	1.11e6
24	Pof	1	1.44e6	1.61e6	1.15e6	1.25e6
25	CG13605	1	1.52e6	1.56e6	1.15e6	1.20e6
26	Tudor-SN	1	1.52e6	1.55e6	1.21e6	1.29e6
27	CG4287	1	1.63e6	1.75e6	1.17e6	1.30e6
28	Osi6	1	1.46e6	1.50e6	1.27e6	1.40e6
29	CG14182	1	1.37e6	1.31e6	1.35e6	1.40e6
30	CG34181	1	1.52e6	1.63e6	8.46e5	9.88e5
31	UbcE2H	1	5.89e5		9.17e5	
32	CG12491 + CG34105	1	1.47e6	1.59e6	9.82e5	1.09e6
33	CG12491 + CG34105	2	1.58e6	1.63e6	1.26e6	1.33e6
34	CG14422	1	1.74e6	1.75e6	1.04e6	1.23e6
35	Toll-4	1	1.46e6	1.56e6	1.22e6	1.36e6
36	CG6006	1	1.42e6	1.52e6	1.06e6	1.14e6
37	CG6006	2	1.53e6	1.60e6	1.25e6	1.29e6
38	CG4218	1	1.69e6	1.69e6	1.32e6	1.57e6
39	Zcchc7	1	1.43e6	1.48e6	1.14e6	1.13e6
40	spn-B	1	1.34e6	1.37e6	1.10e6	1.25e6
41	CG12773	1	5.52e5		8.47e5	
42	CG9394	1	1.44e6	1.66e6	1.35e6	3.94e5
43	CG9044	1	1.28e6	1.37e6	6.53e5	8.98e5
44	CG2129	1	5.01e5		8.77e5	
45	btv	1	1.65e6	1.64e6	1.02e6	1.24e6
46	btv	2	1.54e6	1.61e6	1.29e6	1.43e6
47	CaBP1	1	1.37e6	1.43e6	1.35e6	1.45e6
48	CG30457	1	1.56e6	1.62e6	1.12e6	1.22e6
49	sba	1	1.14e6 (active)	1.28e6	6.59e5	6.29e5
50	sba	2	1.37e6	1.41e6	9.99e5	1.15e6
51	Svil	1	1.54e6	1.63e6	1.00e6	1.15e6
52	Svil	2	1.43e6	1.49e6	1.30e6	1.37e6
53	Svil	3	1.35e6	1.31e6	9.70e5	1.21e6
54	Svil	4	8.16e5 (active)	9.93e5	4.80e5	5.68e5
55	Svil	5	1.52e6	1.39e6	1.02e6	1.33e6
56	Or74a	1	1.46e6	1.38e6	1.09e6	1.29e6
57	Noc3	1	1.46e6	1.56e6	1.13e6	1.25e6
58	fs(1)Yb	1	1.48e6	1.42e6	1.01e6	1.11e6
59	TyrR	1	1.14e6	1.19e6	8.44e5	9.93e5
60	Pex1	1	1.53e6	1.55e6	1.20e6	1.29e6
61	CG16926	1	1.31e6	1.35e6	1.09e6	1.11e6
62	mfr	1	1.34e6	1.35e6	1.23e6	1.28e6
63	MESR3	1	1.58e6	1.58e6	1.19e6	2.81e5
64	dind	1	1.56e6	1.60e6	1.10e6	1.17e6
65	CR42545	1	1.51e6	1.54e6	1.20e6	3.07e5
66	Gp150	1	1.50e6	1.84e6	1.36e6	4.29e5
67	CG16826	1	1.64e6	1.68e6	1.33e6	1.50e6
68	ksr	1	1.31e6	1.49e6	1.26e6	1.34e6
69	ddbt	1	1.48e6	1.42e6	9.86e5	1.14e6
70	insv	1	1.62e6	1.64e6	1.07e6	1.21e6
71	CG9691	1	1.56e6	1.53e6	9.78e5	1.13e6
72	CG6398	1	1.47e6	1.53e6	1.07e6	1.18e6
73	CG13690	1	1.74e6	1.73e6	1.15e6	1.23e6
74	CG12325	1	1.30e6	1.35e6	1.21e6	1.21e6
75	RSG7	1	1.59e6	1.59e6	1.15e6	1.21e6
